Measured values as given in paper PMC7862700.
The other results are listed elsewhere or left out. The source does not settle which construct or isoform was used.

molecular target: T1, ELF2 (UniProt Q15723); experiment: DAPPL (digital affinity profiling via proximity ligation, sequencing); conditions: 10 mM Tris-HCl pH 7.5, 50 mM NaCl, 1 mM DTT, 4% glycerol, room temperature, 30 min; GST-TFs on glutathione beads, 16-mer random dsDNA library, 0.1% …; high values mean tight binding; double strand, one strand shown; scale: fold enrichment (6-mer frequency, TF over GST control)
T1 sequence: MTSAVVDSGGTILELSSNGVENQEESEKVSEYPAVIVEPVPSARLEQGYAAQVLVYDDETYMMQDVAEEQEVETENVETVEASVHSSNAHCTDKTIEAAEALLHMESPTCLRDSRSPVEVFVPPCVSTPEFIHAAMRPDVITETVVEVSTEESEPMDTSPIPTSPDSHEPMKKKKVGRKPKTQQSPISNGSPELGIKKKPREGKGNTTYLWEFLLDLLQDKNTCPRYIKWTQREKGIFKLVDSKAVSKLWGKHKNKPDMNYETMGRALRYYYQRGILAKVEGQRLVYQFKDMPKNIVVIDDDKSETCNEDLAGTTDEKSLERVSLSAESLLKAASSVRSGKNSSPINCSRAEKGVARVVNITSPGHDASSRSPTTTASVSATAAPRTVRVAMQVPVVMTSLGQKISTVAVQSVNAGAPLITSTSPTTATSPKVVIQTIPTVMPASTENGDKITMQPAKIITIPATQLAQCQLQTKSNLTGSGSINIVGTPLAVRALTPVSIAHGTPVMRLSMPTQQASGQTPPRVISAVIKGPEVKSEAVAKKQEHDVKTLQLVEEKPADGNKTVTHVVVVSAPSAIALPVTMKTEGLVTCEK

Question: ATCCAA was tested. Which binding signal did it give?
Answer: 1.14

Question: How did the binding signal turn out when TACTTG was run?
Answer: 1.24

Question: CACTTG was tested. Which binding signal did it give?
Answer: 1.23

Question: For GACCTA, which binding signal is on record?
Answer: 1.1

Question: With CATGAA as the sequence, how does the binding signal read?
Answer: 1.02

Question: How did the binding signal turn out when GTTCTT was run?
Answer: 1.22

Question: TTAATG was tested. Which binding signal did it give?
Answer: 1.15

Question: With TGCTCT as the sequence, how does the binding signal read?
Answer: 1.24

Question: How did the binding signal turn out when AAGAAT was run?
Answer: 1.2

Question: Which binding signal does the source give for CTGTTA here?
Answer: 1.32

Question: With TCCTCT as the sequence, how does the binding signal read?
Answer: 1.72

Question: How did the binding signal turn out when AAATTA was run?
Answer: 1.31

Question: With TACATT as the sequence, how does the binding signal read?
Answer: 1.18

Question: Which binding signal does the source give for GCTCAG here?
Answer: 1.09

Question: With CGTAAT as the sequence, how does the binding signal read?
Answer: 1.18

Question: With GTTTCC as the sequence, how does the binding signal read?
Answer: 3.5

Question: TTCAAG was tested. Which binding signal did it give?
Answer: 1.2

Question: GCTAAT was tested. Which binding signal did it give?
Answer: 1.11

Question: How did the binding signal turn out when CTGCGA was run?
Answer: 1.2

Question: For TTATAC, which binding signal is on record?
Answer: 1.36

Question: How did the binding signal turn out when TATCAT was run?
Answer: 1.11

Question: With TTCTGC as the sequence, how does the binding signal read?
Answer: 1.38

Question: Which binding signal does the source give for GCATTC here?
Answer: 1.09

Question: With GAATTC as the sequence, how does the binding signal read?
Answer: 1.45

Question: With TCTAGT as the sequence, how does the binding signal read?
Answer: 1.08

Question: How did the binding signal turn out when ATCACT was run?
Answer: 1.28

Question: CTTGTG was tested. Which binding signal did it give?
Answer: 1.37

Question: For CTCTGT, which binding signal is on record?
Answer: 1.4

Question: With CTGCCC as the sequence, how does the binding signal read?
Answer: 1.22

Question: Which binding signal does the source give for TACATC here?
Answer: 1.74

Question: With CGATCG as the sequence, how does the binding signal read?
Answer: 0.989

Question: Which binding signal does the source give for TCCATC here?
Answer: 1.11

Question: With TGGCAA as the sequence, how does the binding signal read?
Answer: 1.17

Question: How did the binding signal turn out when ACCGTC was run?
Answer: 1.11

Question: Which binding signal does the source give for CGTTAA here?
Answer: 1.1

Question: Which binding signal does the source give for CCTCTA here?
Answer: 1.3

Question: How did the binding signal turn out when GCTTCA was run?
Answer: 1.22

Question: For TTAGTA, which binding signal is on record?
Answer: 1.09

Question: How did the binding signal turn out when GAACAT was run?
Answer: 1.04
